Results are given in words; binding and its absence hold for the method and conditions named. Binding seen in cells or lysates may run through a third protein. These calls come from enrichment with a bait or labelling near it, and not all partners need be listed. Where a sequence is shown, tags or fusion partners need not be part of it.
T1: FLAG-MTFP1 (Mitochondrial Fission Process 1 protein) (UniProt Q9CRB8)
T1 sequence: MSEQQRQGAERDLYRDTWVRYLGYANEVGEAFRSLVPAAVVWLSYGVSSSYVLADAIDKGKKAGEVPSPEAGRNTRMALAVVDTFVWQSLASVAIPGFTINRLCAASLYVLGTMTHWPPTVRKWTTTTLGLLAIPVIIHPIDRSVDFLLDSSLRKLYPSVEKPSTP

B1: SLC25A20 (protein, UniProt Q9Z2Z6 1-301)
chain: MADEPKPISPFKNLLAGGFGGMCLVFVGHPLDTVKVRLQTQPPSLSGQPPMYSGTLDCFRKTLMREGITGLYRGMAAPIIGVTPMFAVCFFGFGLGKKLQQKSPEDELSYPQLFTAGMLSGVFTTGIMTPGERIKCLLQIQASSGENKYSGTLDCAKKLYQEFGIRGFYKGTVLTLMRDVPASGMYFMTYEWLKNLFTPEGKSVSDLSVPRILVAGGFAGIFNWAVAIPPDVLKSRFQTAPPGKYPNGFRDVLRELIREEGVTSLYKGFNAVMIRAFPANAACFLGFEIAMKFLNWIAPNL
B2: SLC25A11 (protein, UniProt Q9CR62 1-314)
chain: MAATASPGAGRMDGKPRTSPKSVKFLFGGLAGMGATVFVQPLDLVKNRMQLSGEGAKTREYKTSFHALTSILKTEGLKGIYTGLSAGLLRQATYTTTRLGIYTVLFERLTGADGTPPGFLLKALIGMTAGATGAFVGTPAEVALIRMTADGRLPADQRRGYKNVFNALVRIAREEGVPTLWRGCIPTMARAVVVNAAQLASYSQSKQFLLDSGYFSDNILCHFCASMISGLVTTAASMPVDIVKTRIQNMRMIDGKPEYKNGLDVLLKVVRYEGFFSLWKGFTPYYARLGPHTVLTFIFLEQMNKAYKRLFLSG
B3: SLC25A22 (protein, UniProt Q9D6M3 1-323)
chain: MADKQISLPAKLINGGIAGLIGVTCVFPIDLAKTRLQNQQNGQRMYASMSDCLIKTIRSEGYFGMYRGAAVNLTLVTPEKAIKLAANDFFRHQLSKDGQKLTLPKEMLAGCGAGTCQVIVTTPMEMLKIQLQDAGRIAAQRKILAAQAQLSAQGGAQPSVEAPAPPRPTATQLTRDLLRNHGIAGLYKGLGATLLRDVPFSIVYFPLFANLNQLGRPSSEEKSPFYVSFLAGCVAGSAAAVAVNPCDVVKTRLQSLERGVNEDTYSGFLDCARKIWRHEGPSAFLKGAYCRALVIAPLFGIAQVVYFLGIAESLLGLLQEPQA
B4: TIMM8A1 (protein, UniProt Q9WVA2 1-97)
chain: MESSTSSSGSALGAVDPQLQHFIEVETQKQRFQQLVHQMTELCWEKCMDKPGPKLDSRAEACFVNCVERFIDTSQFILNRLEQTQKSKPVFSESLSD
B5: SLC25A15 (protein, UniProt Q9WVD5 1-301)
chain: MKSNPAIQAAIDLTAGAAGGTACVLTGQPFDTMKVKMQTFPDLYRGLTDCCLKTYSQVGFRGFYKGTSPALIANIAENSVLFMCYGFCQQVVRKVVGLDQQAKLSDLQNAAAGSFASAFAALVLCPTELVKCRLQTMYEMETSGKIAASQNTVWSVVKEIFRKDGPLGFYHGLSSTLLREVPGYFFFFGGYELSRSFFASGRSKDELGPVPLMLSGGFGGICLWLAVYPVDCIKSRIQVLSMTGKQTGLVRTFLSIVKNEGITALYSGLKPTMIRAFPANGALFLAYEYSRKLMMNQLEAW
B6: MRRF (protein, UniProt Q9D6S7 56-262)
chain: ATKKAKAKGKGQPQARVTVNRALVEDIISLEEVDEDMKSVVEALKDNFNKTLNIRTAPGSLDHITVVTADGKVALNQIGQISMKSPQVILVNMASFPECTAAAIKAIRESGMNLNPEVEGTLIRVPIPKVTREHREMLVKLAKQNTNKAKENLRKVRTNAMNKLKKSKDKTSEDTIRLIEKQISQMADDTVAELDQHLAAKTKELLG
B7: ALDH1B1 (enzyme, UniProt Q9CZS1 20-519)
chain: SYSTAAALPNPIPNPEICYNKLFINNEWHDAVSKKTFPTVNPTTGEVIGHVAEGDRADVDLAVKAAREAFRLGSPWRRMDASERGRLLNRLADLVERDRVYLASLETLDNGKPFQESYVLDLDEVIKVYRYFAGWADKWHGKTIPMDGEHFCFTRHEPVGVCGQIIPWNFPLVMQGWKLAPALATGNTVVMKVAEQTPLSALYLASLIKEAGFPPGVVNIITGYGPTAGAAIAQHMDVDKVAFTGSTEVGHLIQKAAGESNLKRVTLELGGKSPSIVLADADMEHAVDQCHEALFFNMGQCCCAGSRTFVEESIYREFLERTVEKAKQRKVGNPFELDTQQGPQVDKEQFERILGYIRLGQKEGAKLLCGGERLGERGFFIKPTVFGDVQDGMRIAKEEIFGPVQPLFKFKKIEEVIQRANNTRYGLAAAVFTRDLDKAIYFTQALQAGTVWVNTYNIVTCHTPFGGFKESGNGRELGEDGLRAYTEVKTVTIKVPEKNS
B8: RARS2 (protein, UniProt Q3U186 17-578)
chain: LALPPESLIKSISAVPVSKKEEVADFQLSVDSLLEDNNHKSQVDTQDQARRLAEKLKCDTVVTAISAGPRTLNFKINRELLTKAVLQQVTEDGCKYGLKSELFSDLPKKRIVVEFSSPNIAKKFHVGHLRSTIIGNFIANLKEALGHQVTRINYIGDWGMQFGLLGTGFQLFGYEEKLQTNPLQHLFDVYVQVNKEATDDKNVTKLAHEFFHRLEMGDTQALSLWQRFRDLSIEEYTQIYKRLGIYFDEYSGESFYREKSQDVLKLLDSKGLLQKTAEGNVVVDLSGTGDLSSVCTVMRSDGTSLYATRDLAAAIHRMDKYNFDTMIYVADKGQRRHFQQVFQMLKIMGYDWAERCQHVPFGIVKGMKTRRGGVTFLEDVLNEVQSRMLQNMASIKTTKQLENPQETAERVGLAAVIIQDFRGTLLSDYQFSWDRVFQSRGDTGVFLQYTHARLCSLEETFGCGYLNDSNVACLQEPQSVSILQHLLRFDEVLYLSSQDLQPKHIVSYLLTLSHLAAVAHKTLQVKDSPPDVAGARLHLFKAVRSVLANGMKLLGITPVCRM

target: T1, FLAG-MTFP1 (Mitochondrial Fission Process 1 protein); experiment: affinity purification with mass spectrometry; 500 ug liver mitochondria of Hepatocyte^FLAG-MTFP1 and control mice lysed in IP buffer (20 mM HEPES-KOH pH 7.5, 150 mM NaCl, 0.25% Triton X-100), anti-FLAG magnetic beads 2 h at 4 °C, eluates analysed by LC-MS/MS

Row | binding | Molecule
1 | binds | MRPL43 (mouse (endogenous in liver))

target: T1, FLAG-MTFP1 (Mitochondrial Fission Process 1 protein); experiment: as above; remark: another data set of the same source

Row | binding | Molecule
2 | binds | B1
3 | binds | B2
4 | binds | B3
5 | binds | B4
6 | binds | B5
7 | binds | B6
8 | binds | B7
9 | binds | B8

Source: PMC10733382
